Measurements as given in paper PMC10703869.
Results are given in words; binding and its absence hold for the method and conditions named. Binding seen in cells or lysates may run through a third protein. Some binding calls cover weakened binding; strength is not graded here. Blank lines part the entries; values can stand above or below the binder they belong to.

Columns and labels:
[1] = molecular target: T1, HSPA13 (human (endogenous in Huh-7 and SK-Hep-1)), P48723; assay: co-IP; HYOU1 and FBX6 tested against HSPA13 (Supplementary Fig. 2B and C); cells and antibodies for these partners not given; cell lysates, Dynabeads Protein G, overnight at 4 °C; western blot; conditions: remark: other sources report otherwise
T1 chain: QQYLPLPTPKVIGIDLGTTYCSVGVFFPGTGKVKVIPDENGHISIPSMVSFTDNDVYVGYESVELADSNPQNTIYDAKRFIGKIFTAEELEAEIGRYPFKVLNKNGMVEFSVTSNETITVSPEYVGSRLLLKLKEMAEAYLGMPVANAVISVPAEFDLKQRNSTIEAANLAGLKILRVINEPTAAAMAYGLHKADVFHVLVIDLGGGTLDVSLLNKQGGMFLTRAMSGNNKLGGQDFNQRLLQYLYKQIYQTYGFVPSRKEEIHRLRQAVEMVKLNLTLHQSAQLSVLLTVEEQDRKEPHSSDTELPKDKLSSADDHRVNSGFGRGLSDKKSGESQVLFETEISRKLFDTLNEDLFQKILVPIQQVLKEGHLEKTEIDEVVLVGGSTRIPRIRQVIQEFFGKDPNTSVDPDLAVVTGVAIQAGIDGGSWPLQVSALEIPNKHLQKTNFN

[2] = molecular target: T2, HSPA13 (human (endogenous in Huh-7 and SK-Hep-1)) (UniProt P48723); assay: co-IP; endogenous HSPA13 and TANK in Huh-7 and SK-Hep-1 cell lysates; anti-HSPA13 or anti-TANK antibody or control IgG with Dynabeads Protein G, overnight at 4 °C; western blot
T2 sequence: T1 chain

binding [1]: no binding
B1: HYOU1, Q9Y4L1 33-999 (protein)
chain: LAVMSVDLGSESMKVAIVKPGVPMEIVLNKESRRKTPVIVTLKENERFFGDSAASMAIKNPKATLRYFQHLLGKQADNPHVALYQARFPEHELTFDPQRQTVHFQISSQLQFSPEEVLGMVLNYSRSLAEDFAEQPIKDAVITVPVFFNQAERRAVLQAARMAGLKVLQLINDNTATALSYGVFRRKDINTTAQNIMFYDMGSGSTVCTIVTYQMVKTKEAGMQPQLQIRGVGFDRTLGGLEMELRLRERLAGLFNEQRKGQRAKDVRENPRAMAKLLREANRLKTVLSANADHMAQIEGLMDDVDFKAKVTRVEFEELCADLFERVPGPVQQALQSAEMSLDEIEQVILVGGATRVPRVQEVLLKAVGKEELGKNINADEAAAMGAVYQAAALSKAFKVKPFVVRDAVVYPILVEFTREVEEEPGIHSLKHNKRVLFSRMGPYPQRKVITFNRYSHDFNFHINYGDLGFLGPEDLRVFGSQNLTTVKLKGVGDSFKKYPDYESKGIKAHFNLDESGVLSLDRVESVFETLVEDSAEEESTLTKLGNTISSLFGGGTTPDAKENGTDTVQEEEESPAEGSKDEPGEQVELKEEAEAPVEDGSQPPPPEPKGDATPEGEKATEKENGDKSEAQKPSEKAEAGPEGVAPAPEGEKKQKPARKRRMVEEIGVELVVLDLPDLPEDKLAQSVQKLQDLTLRDLEKQEREKAANSLEAFIFETQDKLYQPEYQEVSTEEQREEISGKLSAASTWLEDEGVGATTVMLKEKLAELRKLCQGLFFRVEERKKWPERLSALDNLLNHSSMFLKGARLIPEMDQIFTEVEMTTLEKVINETWAWKNATLAEQAKLPATEKPVLLSKDIEAKMMALDREVQYLLNKAKFTKPRPRPKDKNGTRAEPPLNASASDQGEKVIPPAGQTEDAEPISEPEKVETGSEPGDTEPLELGGPGAEPEQKEQSTGQKRPLKNDEL

binding [2]: binds
B2: TANK (TRAF family member-associated NF-kappa-B activator) (protein, UniProt Q92844 1-425)
chain: MDKNIGEQLNKAYEAFRQACMDRDSAVKELQQKTENYEQRIREQQEQLSLQQTIIDKLKSQLLLVNSTQDNNYGCVPLLEDSETRKNNLTLDQPQDKVISGIAREKLPKVRRQEVSSPRKETSARSLGSPLLHERGNIEKTFWDLKEEFHKICMLAKAQKDHLSKLNIPDTATETQCSVPIQCTDKTDKQEALFKPQAKDDINRGAPSITSVTPRGLCRDEEDTSFESLSKFNVKFPPMDNDSTFLHSTPERPGILSPATSEAVCQEKFNMEFRDNPGNFVKTEETLFEIQGIDPIASAIQNLKTTDKTKPSNLVNTCIRTTLDRAACLPPGDHNALYVNSFPLLDPSDAPFPSLDSPGKAIRGPQQPIWKPFPNQDSDSVVLSGTDSELHIPRVCEFCQAVFPPSITSRGDFLRHLNSHFNGET
